Source: ChEMBL document CHEMBL3988442, “University of Dundee, Small-Polar-MMV Screening Library” (2021).

Sequences of proteins named here, by UniProt entry; tags and fusion partners are left off.
UniProt E9BF75, entry or part of it: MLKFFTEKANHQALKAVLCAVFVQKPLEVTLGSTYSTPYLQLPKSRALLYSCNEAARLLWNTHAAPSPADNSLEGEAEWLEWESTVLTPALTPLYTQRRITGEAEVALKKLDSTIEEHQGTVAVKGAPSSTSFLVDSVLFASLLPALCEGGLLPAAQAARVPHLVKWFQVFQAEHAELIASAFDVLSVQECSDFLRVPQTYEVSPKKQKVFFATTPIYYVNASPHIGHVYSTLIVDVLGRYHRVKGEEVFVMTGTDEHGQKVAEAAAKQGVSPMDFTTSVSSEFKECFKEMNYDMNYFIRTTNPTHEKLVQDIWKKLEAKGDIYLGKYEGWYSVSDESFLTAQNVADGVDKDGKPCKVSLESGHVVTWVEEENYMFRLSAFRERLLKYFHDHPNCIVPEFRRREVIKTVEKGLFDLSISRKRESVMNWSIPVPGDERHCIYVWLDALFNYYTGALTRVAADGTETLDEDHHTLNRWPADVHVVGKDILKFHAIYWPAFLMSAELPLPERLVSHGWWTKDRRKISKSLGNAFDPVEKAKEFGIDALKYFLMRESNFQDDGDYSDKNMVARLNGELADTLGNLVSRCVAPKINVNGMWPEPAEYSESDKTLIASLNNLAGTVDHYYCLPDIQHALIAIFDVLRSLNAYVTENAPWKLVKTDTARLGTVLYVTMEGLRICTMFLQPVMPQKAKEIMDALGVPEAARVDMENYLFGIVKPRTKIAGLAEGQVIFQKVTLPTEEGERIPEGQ

Results are percentages, as filed. How 0% and 100% were set is not recorded. Most values in the screen are low, and negative values occur. Compounds were drawn at random from those tested, without regard to their results.

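Methionyl-tRNA synthetase (putative), Leishmania donovani (UniProt E9BF75). Primary screen of methionyl-tRNA synthetase; the read-out is not stated. The test concentration is not given. The values are filed as inhibition. About 68,000 compounds were tested under these conditions; 0.035% (about 24) showed 50% or more at least once.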

With O=C(CN1CCC(c2ccccc2)CC1)NCc1cc2n(n1)CCNC2 the screen gave 6.46%. With Cc1nc(CN2CCc3ncnc(-c4ccncc4)c3CC2)cs1 the screen gave 6.667%. Cc1ccc(-n2nnc(C(=O)NS(C)(=O)=O)c2C2CC2)cc1 gave 11.11%. Result for O=C(CCNc1ncccn1)Nc1cc(C(F)(F)F)c[nH]c1=O was 16.19%. Result for CC(=O)NCC(=O)N1CCc2[nH]c(-c3ccccc3)nc2C1 was 20%. With Cc1cccc(CNC(=O)Nc2cc(C(F)(F)F)c[nH]c2=O)n1 the screen gave 15.58%.

For CCCc1cc(C(=O)N(Cc2cccnc2)Cc2cccnc2)[nH]n1 the result was 17.63%. CCN(Cc1ccco1)C(=O)Nc1cc(C(F)(F)F)c[nH]c1=O read 18.11%. CN(C)CCN(Cc1ccc(C(F)(F)F)cc1)C(=O)c1cc[nH]n1 read 14.67%. Result for COCCSc1ccc(-n2ccnc2)nn1 was 2.484%. For Cc1ccc(C(=O)NCc2ccc(N3CCCC(C(N)=O)C3)cc2)o1 (centres undefined) the result was 13.47%. Result for Cc1cc(CN2CCN(C(=O)NCc3nc(C)cs3)CC2)on1 was 15.75%.

Cc1c[nH]nc1C1CCCCN1C(=O)CC1(O)CCCCC1 (centres undefined) read 7.294%. CCc1nnc(CN2CCCC(c3cc(C(F)(F)F)[nH]n3)C2)o1 (centres undefined) gave 11.19%. CC(=O)Nc1ccc(OCc2noc(C(=O)N3CCCC3)n2)cc1 gave 10.22%. CC(C)c1ccc(S(=O)(=O)N2CCCC3(CCCN3S(C)(=O)=O)C2)cc1 (centres undefined) read 19.29%. With CCN1CCN(C2CCN(CC(=O)NCC(F)(F)F)CC2)C1=O the screen gave 19.44%. For COc1ccccc1CN(CC1CCCO1)C(=O)c1ccc(F)cn1 (centres undefined) the result was 7.614%.

With Clc1cccc(C(NCc2ncc[nH]2)c2ccccn2)c1 (centres undefined) the screen gave -1.242%. For Cc1nc(NCc2ccco2)nc2c1COCC21CCNC1 (centres undefined) the result was 5.226%. CCC(CC)NC(=O)c1ccc2c(c1)C(c1nc[nH]n1)CN2S(C)(=O)=O (centres undefined) gave 12.24%. O=C(NCCn1cccn1)Nc1cc(C(=O)N2CCOCC2)ccc1Cl gave 12.26%. Clc1cccnc1N1CCC(C2CCN(Cc3cccnc3)CC2)C1 (centres undefined) read 3.169%. Cc1cc(C)cc(N(CCC#N)C(=O)CN2CCCC2c2cccs2)c1 (centres undefined) read 11.29%.

Result for Cc1nc(N)sc1C(=O)N1CCCC(COc2ccc(F)cc2)C1 (centres undefined) was 5.842%. For CCn1c(C2CCN(C(=O)c3cc(Cl)no3)CC2)nn(C)c1=O the result was 11.71%. Cc1cnn(CC2CCCN2C(=O)c2cccc(-n3ccc(C)n3)c2)c1 (centres undefined) gave 10%. For Cc1nnc(C(C)Nc2ccc(OCCc3ccccc3)nc2)o1 (centres undefined) the result was 8.273%. With CC(C)=CCN1CCC(c2nnc(CN3CCN(C)CC3)n2C)CC1 the screen gave 6.213%. With CN1CCN(Cc2cn3c(n2)CNCC3)CC1 the screen gave -1.571%.

For Cc1cc(C)nc(C2CCCN2C(=O)c2cnccn2)n1 (centres undefined) the result was 15.22%. COc1ccnc(N2CCN(C(=O)CN3CCOCC3)CC2)n1 gave 10.29%.

Some entries from above, unchanged:

{"compound": "Cc1cc(CN2CCN(C(=O)NCc3nc(C)cs3)CC2)on1", "inhibition": 15.75}
{"compound": "O=C(CN1CCC(c2ccccc2)CC1)NCc1cc2n(n1)CCNC2", "inhibition": 6.46}
{"compound": "CCN1CCN(C2CCN(CC(=O)NCC(F)(F)F)CC2)C1=O", "inhibition": 19.44}